Laboratory results: PubChem BioAssay AID652259 (Drosophila RNAi Screening Center, 2013)

Assay: 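Knock-downs that push a Wingless-driven reporter up or down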 (primary screen)
Cells: Drosophila clone 8 imaginal disc epithelial cells
Reagents: long dsRNA against Drosophila genes
Challenge: pathway stimulated by co-transfected Wingless expression plasmid
Measured: 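Dual luciferase reads per well after Wingless plasmid stimulation: reporter firefly light and Renilla control light; activity is firefly divided by Renilla, a ratio not deposited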
Scale: firefly reporter light: higher = more Wg reporter light, before normalisation; Renilla control light: higher = more transfected or surviving cells
Active means: 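a knock-down is a candidate when at least two out of four statistical tests show it departing from its plate mean; one test alone signals a weak candidate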
Calls: active = candidate regulator (raises or lowers reporter); inactive = not a candidate
In all, the deposit lists about 22,000 reagents; this is an unselected part of those with a known target gene and a result. In the full data, 233 (1.1%) got an active call. 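Light values are raw, unnormalised plate reads; the ratio scores behind the reporter calls were not deposited.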 Unmarked entries are inactive. Names joined by + are all predicted targets of the reagent. Not stated in the record: the amount of reagent, the time to read-out, the dose of the treatment.

Target gene	amplicon	reporter change call, replicate 1	firefly reporter light, replicate 1	firefly reporter light, replicate 2	Renilla control light, replicate 1	Renilla control light, replicate 2
CG9759	DRSC16558		9289		3225	
wrm1 + wrm2	DRSC11007		6592		2932	
nxf2	DRSC10403		3350		1464	
CG1418	DRSC06447		2807	6422	770	2620
lectin-33A	DRSC02529		2557	6154	849	3696
lectin-33A	DRSC22116		5.69e5	5.79e5	2.86e5	3.41e5
Bro	DRSC08149		5949		2432	
Naa20B	DRSC21442		4.47e5	3.93e5	2.46e5	1.68e5
REPTOR-BP	DRSC02683		4336	7227	1136	3499
insv	DRSC00579		2352	4647	1170	2977
Arl2	DRSC14117		14245		3548	
CG4593	DRSC18374		21853		8957	
CG31102	DRSC14260		25469		20553	
CG3650	DRSC04401		1600	7481	343	2055
CG13344	DRSC06378		15312		5736	
5-HT1A	DRSC05030		5110		1963	
CG4882	DRSC04495		3191	5783	827	2128
noc	DRSC03580		6849		916	
Mis12	DRSC10299		1652	4493	1607	2561
CG34430	DRSC06499		2714	10268	669	3041
trus	DRSC15772		10853		2163	
CG15914	DRSC19739		24450		8977	
RabX4	DRSC22189		6.43e5	6.91e5	3.11e5	2.88e5
rno	DRSC08584		5687		3088	
Cpr65Ay	DRSC08796		3219		2060	
yem	DRSC14865		8508		2759	
yem	DRSC17097		6384		2290	
flw	DRSC17992		20379		15206	
flw	DRSC18774		13858		10377	

4 of these entries in another layout.
{"Target gene":"REPTOR-BP","amplicon":"DRSC02683","firefly reporter light, replicate 1":4336,"firefly reporter light, replicate 2":7227,"Renilla control light, replicate 1":1136,"Renilla control light, replicate 2":3499}
{"Target gene":"insv","amplicon":"DRSC00579","firefly reporter light, replicate 1":2352,"firefly reporter light, replicate 2":4647,"Renilla control light, replicate 1":1170,"Renilla control light, replicate 2":2977}
{"Target gene":"Arl2","amplicon":"DRSC14117","firefly reporter light, replicate 1":14245,"Renilla control light, replicate 1":3548}
{"Target gene":"CG4593","amplicon":"DRSC18374","firefly reporter light, replicate 1":21853,"Renilla control light, replicate 1":8957}

Continued.
Target gene	amplicon	reporter change call, replicate 1	firefly reporter light, replicate 1	firefly reporter light, replicate 2	Renilla control light, replicate 1	Renilla control light, replicate 2
nompB	DRSC03701		2187	5757	739	2336
nompB	DRSC03731		5050	10167	1344	4496
CG17104	DRSC02573		9223		1956	
RpS19a	DRSC20281		16489		9661	
Ubc6	DRSC12370		8554		1872	
CG5265	DRSC15756		11348		3152	
gammaTub23C	DRSC00820		10429		3932	
alpha-Est5	DRSC12617		6976		1396	
Mdr65	DRSC11220		1216	4668	773	2461
CG13474	DRSC10018		7937		1978	
CG3868	DRSC10380		2707		1181	
pum	DRSC12722		4021		1725	
pum	DRSC12726		6628		1960	
pum	DRSC17037		18396		5248	
pum	DRSC17038		21632		5741	
pum	DRSC22758		4.54e5	5.50e5	1.98e5	1.43e5
pum	DRSC22794		7.13e5	7.41e5	2.35e5	2.76e5
CG33978	DRSC17106		3715		1141	
CG4328	DRSC10410	Wg reporter activity raised (active)	8935		704	
SrpRalpha	DRSC20251		1447	6971	1059	3389
